Source: PMC4222488, “Lipid droplet binding thalidomide analogs activate endoplasmic reticulum stress and suppress hepatocellular carcinoma in a chemically induced transgenic mouse model” (Lipids in Health and Disease, 2013)

Tested on: HepG2
Assay: Intracellular localization by fluorescent confocal microscopy with ER-Tracker Green
Assay type: cell-based, human
Conditions: HepG2 live cells, inherent blue fluorescence

For CC(C)c1cccc(C(C)C)c1N1C(=O)c2c(F)c(F)c(F)c(N[C@@H]3C=CS(=O)(=O)C3)c2C1=O [Ac-915, 2-[2,6-bis(propane-2-yl)phenyl]-4-{[(3R)-1,1-dioxo-2,3-dihydro-thiophene-3-yl]amino}-5,6,7-trifluoro-2,3-dihydro-1H-isoindole-1,3-dione], the Subcellular localization was “ER-specific localization”.

CC(C)c1cccc(C(C)C)c1N1C(=O)c2c(F)c(F)c(F)c(NC(=O)NC(=O)CCl)c2C1=O [Ac-2010] was tested, and the Subcellular localization was “ER-specific localization”.
